Literature values in paper PMC4880976, “Pharmacologic rationale for the NK1R antagonist, aprepitant as adjunctive therapy in HIV” (Journal of Translational Medicine, 2016).

Settings: Table 1, reference not given; cited from earlier work

Structure (SMILES): CN1C(=O)CN=C(c2ccccc2)c2cc(Cl)ccc21 [Diazepam]
- Effective plasma concentrations: Effective plasma concentrations 150–400 ng/mL
